# Experimental data: article PMC10618370, “Mur ligase F as a new target for the flavonoids quercitrin, myricetin, and (–)-epicatechin” (Journal of Computer-Aided Molecular Design, 2023)
# Some entries repeat one wording, which the source may state once for all of them.
# Test: Assay interference screen (malachite green-based assay)
# Settings: 100 µM compound, absorbance at 650 nm
row,SMILES,Interference with the malachite green assay (in words)
1,COc1cc(OC)c2c(=O)cc(-c3ccc(OC)c(OC)c3)oc2c1 [Compound 19],increased the absorbance at 650 nm
2,"O=c1c(O)c(-c2ccc(O)c(O)c2)oc2cc(O)cc(O)c12 [Compound 14, Quercetin]",interacted with the assay
3,O=c1c(OC2OC(CO)C(O)C(O)C2O)c(-c2ccc(O)c(O)c2)oc2cc(O)cc(O)c12 (stereo not drawn) [Compound 9],increased the absorbance at 650 nm
